Data on 20 compounds can be found in PubChem BioAssay AID256 (DTP/NCI, 2004).

In the test the test system is CD2F1 mice, L1210 leukemia ip, survival T/C. Put plainly: NCI In Vivo Anticancer Drug Screen. Data for tumor model L1210 Leukemia (intraperitoneal) in CD2F1 (CDF1) mice. Conditions: higher T/C = longer survival. The procedure, abridged: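 Compound-dosed mice with transplantable tumor versus matched vehicle controls; endpoint ratio T/C reported.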
[1] abbreviates: T/C endpoint: mean survival time, dose: 200.0 mg/kg/injection, schedule: Q01DX009 (ip), vehicle: saline with Tween-80.
The mark [2] stands for this setting: T/C endpoint: mean survival time, dose: 200.0 mg/kg/injection, schedule: Q01DX001 (ip), vehicle: saline.
Setting [3] is: T/C endpoint: mean survival time, dose: 400.0 mg/kg/injection, schedule: Q01DX001 (ip), vehicle: saline.
Where [4] appears, read: T/C endpoint: mean survival time, dose: 300.0 mg/kg/injection, schedule: Q01DX001 (ip), vehicle: saline.
Where [5] appears, read: T/C endpoint: mean survival time, dose: 100.0 mg/kg/injection, schedule: Q01DX009 (ip), vehicle: water.
Setting [6] is: T/C endpoint: mean survival time, dose: 200.0 mg/kg/injection, schedule: Q01DX009 (ip), vehicle: water.
[7] abbreviates: T/C endpoint: mean survival time, dose: 200.0 mg/kg/injection, schedule: Q04DX003 (ip), vehicle: saline with Tween-80.
Setting [8] is: T/C endpoint: mean survival time, dose: 400.0 mg/kg/injection, schedule: Q04DX003 (ip), vehicle: saline with Tween-80.

The list is a part of this screen's results and no random one: it is rich in T/C values a quarter to a half above the control, in often repeated tests (any T/C) and in doses without a T/C. Further doses and runs are listed elsewhere. T/C: endpoint of the treated group in % of that of the vehicle group. Some doses have a count of surviving animals in place of a T/C: the source holds a T/C of zero for them, seemingly a mark for toxic or unscored doses. Some survivor counts are full or nearly so, which does not show that the dose was tolerated: survival well below the control is almost never listed, so the zero probably covers shortened survival too. Counts of survivors are from the toxicity check (mostly the fifth day) where no day follows; animals may have died later. Schedule codes are those of the source, read here as Q, the interval in days (D) or hours (H), X, the number of doses. Some molecules as drawn cover several salts, stereoisomers or complexes of the source; a dose is that of the sample tested. Some entries were tested several times; the values are given in rising order. Where survival is the endpoint, this PubChem deposit counts one and a half times the control or more as active, and values a quarter to a half above the control carry no call in these data; other NCI protocols may use other cut-offs. Some T/C values carry the count of animals alive at the toxicity check (mostly the fifth day); without a count, all were alive then.

As to `COc1ccc(NC(=O)Oc2ccc(Cl)c(C)c2)cc1`, the survivor count under setting [1] was 6 of 6.

As for `COC(=O)C#CBr`, the survivor count reads like this: (T/C endpoint: mean survival time, dose: 25.0 mg/kg/injection, schedule: Q04DX003 (ip), vehicle: other) 0 of 6; (T/C endpoint: mean survival time, dose: 100.0 mg/kg/injection, schedule: Q04DX003 (ip), vehicle: other) 0 of 6; (T/C endpoint: mean survival time, dose: 200.0 mg/kg/injection, schedule: Q04DX003 (ip), vehicle: other) 0 of 6; (T/C endpoint: mean survival time, dose: 400.0 mg/kg/injection, schedule: Q04DX003 (ip), vehicle: other) 0 of 6.

On to `C=C1C[C@@H](O)C[C@@]2(C)C[C@@H]3OC(=O)C(=C)[C@@H]3C[C@H]12`, for which the survivor count (T/C endpoint: mean survival time, dose: 400.0 mg/kg/injection, schedule: Q01DX009 (ip), vehicle: saline with Tween-80) is given as 0 of 6.

As to `CSc1cc(C)[o+]c(C)c1`, where the note is “T/C endpoint: mean survival time, dose: 400.0 mg/kg/injection, schedule: Q01DX009 (ip), vehicle: Klucel (hydroxypropylcellulose) (HPC)”, the survivor count was 0 of 6.

As to `CC(=O)OCCN1CCN(CCCN2c3ccccc3Sc3ccc(C(F)(F)F)cc32)CC1`, the T/C by setting is: (T/C endpoint: mean survival time, dose: 9.0 mg/kg/injection, schedule: Q03HX024 (ip), vehicle: saline) 132 % of control; (T/C endpoint: mean survival time, dose: 50.0 mg/kg/injection, schedule: Q01DX001 (ip), vehicle: saline) 129 % of control [5 of 6 alive].

As to `CC(=O)Oc1cc(OC(C)=O)c2c(OC(C)=O)c3c(OC(C)=O)cc(C)cc3cc2c1`, the survivor count is given as 0 of 6 (T/C endpoint: mean survival time, dose: 100.0 mg/kg/injection, schedule: Q01DX001 (ip), vehicle: saline); 0 of 6 under setting [2]; 0 of 6 under setting [3].

In the case of `O=C(O)CCC(O)C(=O)O.[NH-]C1CCCCC1[NH-].[Pt+2]` (configuration not stated), the T/C reads like this: (T/C endpoint: median survival time, dose: 6.25 mg/kg/injection, schedule: Q04DX003 (ip), vehicle: saline) 135 % of control; (T/C endpoint: median survival time, dose: 25.0 mg/kg/injection, schedule: Q04DX003 (ip), vehicle: saline) 134 % of control; (T/C endpoint: median survival time, dose: 100.0 mg/kg/injection, schedule: Q04DX003 (ip), vehicle: saline) 146 % of control [5 of 6 alive]. Where the note is “T/C endpoint: median survival time, dose: 200.0 mg/kg/injection, schedule: Q04DX003 (ip), vehicle: saline”, the survivor count was 2 of 6.

With `CN(C)CCC(=O)C(c1ccccc1)c1ccccc1`, the survivor count under setting [4] is listed as 0 of 6.

In the case of `CC(C)N1C(=O)N(Cl)C2C1N(Cl)C(=O)N2Cl` (configuration not stated), the survivor count (T/C endpoint: median survival time, dose: 50.0 mg/kg/injection, schedule: Q01DX009 (ip), vehicle: saline with Tween-80) was 0 of 6; the survivor count (T/C endpoint: median survival time, dose: 100.0 mg/kg/injection, schedule: Q01DX009 (ip), vehicle: saline with Tween-80) was 0 of 6; the survivor count (T/C endpoint: median survival time, dose: 200.0 mg/kg/injection, schedule: Q01DX009 (ip), vehicle: saline with Tween-80) was 0 of 6; the survivor count (T/C endpoint: median survival time, dose: 400.0 mg/kg/injection, schedule: Q01DX009 (ip), vehicle: saline with Tween-80) is recorded as 0 of 6.

On to `ClCC[N+]12CC[N+](CCCl)(CC1)C2`, for which the T/C by setting is: (T/C endpoint: mean survival time, dose: 44.0 mg/kg/injection, schedule: Q01DX009 (ip), vehicle: saline) 140 % of control; (T/C endpoint: mean survival time, dose: 50.0 mg/kg/injection, schedule: Q01DX009 (ip), vehicle: saline) 130 % of control; (T/C endpoint: mean survival time, dose: 75.0 mg/kg/injection, schedule: Q04DX003 (ip), vehicle: saline) 130 % of control; (T/C endpoint: mean survival time, dose: 100.0 mg/kg/injection, schedule: Q01DX009 (ip), vehicle: saline) 139 [5 of 6 alive], 145, 176, 189 % of control; under setting [5], 125 % of control; under setting [6], 138 and 143 % of control. The T/C (T/C endpoint: mean survival time, dose: 300.0 mg/kg/injection, schedule: Q04DX003 (ip), vehicle: saline) is 147 % of control and the T/C (T/C endpoint: mean survival time, dose: 600.0 mg/kg/injection, schedule: Q04DX003 (ip), vehicle: saline) is 137 % of control. Also, the survivor count under setting [5] is 5 of 6 and the survivor count (T/C endpoint: mean survival time, dose: 400.0 mg/kg/injection, schedule: Q01DX009 (ip), vehicle: saline) is reported as 3 of 10, 2 of 6, 4 of 6.

Consider `CN(C)P1(=S)NCC(C(C)(C)C)CO1` (configuration not stated), for which, under “T/C endpoint: mean survival time, dose: 500.0 mg/kg/injection, schedule: Q01DX001 (ip), vehicle: distilled water + Tween-80”, the survivor count is listed as 2 of 6.

For the compound `CC(C)(O)C1C2OC(=O)C1C1(O)CC3OC34C(=O)OC2C14C` (configuration not stated), the survivor count (T/C endpoint: mean survival time, dose: 100.0 mg/kg/injection, schedule: Q04DX003 (ip), vehicle: saline with Tween-80) is 4 of 6; the survivor count under setting [7] is 1 of 6; the survivor count under setting [8] is 0 of 6.

For `CCCCCCCCCCCCCCCCC/C=C1\CC(=O)OC1=O`, the survivor count is, setting by setting: under setting [7], 6 of 6; under setting [8], 6 of 6.

Consider `COC(=O)N(C)c1nc(-c2ccccc2)nc2nonc12`, for which the survivor count (T/C endpoint: mean survival time, dose: 200.0 mg/kg/injection, schedule: Q01DX005 (ip), vehicle: saline with Tween-80) is 6 of 6.

On to `[Cl][Pt+2][Cl].[NH-]c1ccc(F)cc1.[NH-]c1ccc(F)cc1`, for which, for the setting “T/C endpoint: mean survival time, dose: 200.0 mg/kg/injection, schedule: Q04DX003 (ip), vehicle: distilled water + Tween-80”, the survivor count is reported as 4 of 6.

On to `C(=N/NC1=NCCN1)/c1c2ccccc2c(/C=N\NC2=NCCN2)c2ccccc12`, for which the T/C is, setting by setting: (T/C endpoint: median survival time, dose: 0.75 mg/kg/injection, schedule: Q01DX009 (ip), vehicle: suspension in saline) 139 % of control; (T/C endpoint: median survival time, dose: 0.78 mg/kg/injection, schedule: Q01DX009 (ip), vehicle: saline) 148 % of control; (T/C endpoint: median survival time, dose: 1.5 mg/kg/injection, schedule: Q01DX009 (ip), vehicle: suspension in saline) 134 % of control; (T/C endpoint: median survival time, dose: 1.56 mg/kg/injection, schedule: Q01DX009 (ip), vehicle: saline) 128 % of control; (T/C endpoint: median survival time, dose: 3.12 mg/kg/injection, schedule: Q01DX009 (ip), vehicle: saline) 137 % of control; (T/C endpoint: median survival time, dose: 6.0 mg/kg/injection, schedule: Q01DX009 (ip), vehicle: suspension in saline) 149 % of control. For the same compound, the T/C is, setting by setting: (T/C endpoint: median survival time, dose: 6.25 mg/kg/injection, schedule: Q01DX009 (ip), vehicle: saline) 132 % of control; (T/C endpoint: median survival time, dose: 12.0 mg/kg/injection, schedule: Q01DX009 (ip), vehicle: suspension in saline) 137 % of control; (T/C endpoint: median survival time, dose: 24.0 mg/kg/injection, schedule: Q01DX009 (ip), vehicle: suspension in saline) 141 % of control; (T/C endpoint: median survival time, dose: 25.0 mg/kg/injection, schedule: Q01DX009 (ip), vehicle: saline) 130 % of control; (T/C endpoint: median survival time, dose: 50.0 mg/kg/injection, schedule: Q01DX009 (ip), vehicle: saline) 132 % of control.

Turning to `CC(C)c1ccccc(=O)c1O.CC(C)c1ccccc(=O)c1O.[Cu]`, the survivor count (T/C endpoint: mean survival time, dose: 50.0 mg/kg/injection, schedule: Q01DX009 (ip), vehicle: saline with Tween-80) was 2 of 6; the survivor count (T/C endpoint: mean survival time, dose: 100.0 mg/kg/injection, schedule: Q01DX009 (ip), vehicle: saline with Tween-80) was 0 of 6; the survivor count under setting [1] is recorded as 0 of 6.

Take `CC(CCCC#N)[N+](=O)[O-]` (configuration not stated): the survivor count (T/C endpoint: mean survival time, dose: 80.0 mg/kg/injection, schedule: Q01DX001 (ip), vehicle: saline) was 2 of 4; the survivor count under setting [2] is on record as 0 of 4; the survivor count under setting [3] is recorded as 0 of 4.

`O=C1C2C(C(=O)N1c1ccc(OCc3ccccc3)cc1)C1c3ccccc3C2C2CCCCN21` (configuration not stated): the survivor count runs as follows: under setting [5], 0 of 6; under setting [6], 0 of 6; (T/C endpoint: mean survival time, dose: 400.0 mg/kg/injection, schedule: Q01DX009 (ip), vehicle: water) 0 of 6.

Take `COC1C(O)C(C)OC(OC2CCC3(C)C(CCC4C3C(O)CC3(C)C(C5=CC(=O)OC5)CCC43O)C2)C1O` (configuration not stated): the survivor count is recorded as 1 of 6 (T/C endpoint: mean survival time, dose: 75.0 mg/kg/injection, schedule: Q01DX001 (ip), vehicle: saline); 0 of 6 (T/C endpoint: mean survival time, dose: 150.0 mg/kg/injection, schedule: Q01DX001 (ip), vehicle: saline); 0 of 6 under setting [4].
